Where a name gives a salt, the structure may show the parent alone. Read-outs that look alike come from different tables or passages of the source.

The conditions of this data set: black rat snake (Pantherophis obsoletus), 25 mg/mL. How it is done: Shed snakeskin, which is a model membrane to human skin used for preliminary permeability studies due to its similarity in composition to the human stratum corneum, was used as a skin model. The solution in the receiver compartment was maintained at 37° C. and stirred at 500 rpm with a magnetic stirrer. Before each experiment, the shed snakeskin was hydrated in 7.4 pH Dulbecco's Phosphate Buffered Saline (DPBS) containing 0.1% sodium azide solution for 24 hours at room temperature.
To emulate the esterase activity of human skin, a “sandwich” of shed snakeskin from a black rat snake (Pantherophis obsoletus) and a dialysis membrane with a molecular weight cut-off of 3.5 kDa (Cole-Palmer, Spectra Por S/P 3 EW-02900-04) was designed. Recombinant Human Carboxylesterase 2/CES2 (R&D Systems, #5657-CE) at a concentration 50 μg/mL was added between the snakeskin and the dialysis membrane (FIG. 1). A diffusion area of 0.64 cm^2 and a volume of 2 mL in the donor and receiver compartments were used. The temperature in Franz cell was controlled via thermocouple probe IT-23 (World Precision Instruments, Sarasota, FL, USA) placed in receiver compartment below the membrane “sandwich” through the sampling arm. All tested compounds were solubilized in 50% polyethylene glycol 400 (PEG 400)/DPBS at 25 mg/mL. PEG 400 was used to increase the water solubility of diethyl cromoglycate, cetirizine ethyl ester and cetirizine cromoglycate.
The system was allowed to equilibrate for one hour before each experiment. […] The receiver compartment was filled with 2 mL of 50% w/w polyethylene glycol 400 in DPBS to maintain a sink condition in the receiver solution. A sample was manually taken at 1-hour intervals from the receptor compartment and replaced with fresh DPBS at each time point. The concentration of drugs and their cumulative amount was plotted against time. Each experiment with each compound was performed in triplicate. The amount of the drug in the sample was estimated spectrophotometrically (NanoDrop™ UV-Visible spectrophotometer, Thermo Fisher Scientific Inc.). Light absorption was plotted as a function of concentration and fitted with a linear regression equation.

As to `O=C(O)COCCN1CCN(C(c2ccccc2)c2ccc(Cl)cc2)CC1` (stereo not shown) [Cetirizine Dihydrochloride], the “Cumulative concentration per unit area” value came out at 0 μg/cm^2 (0 h); 14 μg/cm^2 (1 h); 22 μg/cm^2 (2 h); 35 μg/cm^2 (3 h); 53 μg/cm^2 (4 h); 73 μg/cm^2 (5 h). In addition, the “Cumulative concentration per unit area” value is, setting by setting: (6 h) 94 μg/cm^2; (7 h) 115 μg/cm^2; (8 h) 130 μg/cm^2; (9 h) 163 μg/cm^2; (10 h) 198 μg/cm^2; (11 h) 215 μg/cm^2. Further, the “Cumulative concentration per unit area” value (12 h) is 234 μg/cm^2.

The values are drawn from patent US20250269041A1, “Mutual Prodrugs of Cromoglicic Acid” (Samdolite Pharmaceuticals, Inc., priority 2022, published 2025).
